Data on twelve compounds can be found in PubChem BioAssay AID192 (DTP/NCI, 2004).

This test has as its system BDF1 mice, B16 melanoma ip, median survival T/C. The experiment in a line: NCI In Vivo Anticancer Drug Screen. Data for tumor model B16 Melanoma (intraperitoneal) in B6D2F1 (BDF1) mice. As to conditions: T/C endpoint: median survival time, higher T/C = longer survival. How it is done: The antitumor activity of compounds was measured in mice bearing transplantable tumors. Survival or tumor size were measured and the results are expressed as the measurement made in the treated group (T) divided by the measurement made in the vehicle treated control group (C). The tumor model used in this assay is B16 Melanoma (intraperitoneal) in B6D2F1 (BDF1) mice

Where [1] appears, read: dose: 20.0 mg/kg/injection, schedule: Q01DX009 (ip), vehicle: saline.
The mark [2] stands for this setting: dose: 25.0 mg/kg/injection, schedule: Q01DX009 (ip), vehicle: saline.
[3] abbreviates: dose: 50.0 mg/kg/injection, schedule: Q01DX009 (ip), vehicle: saline.
Setting [4] is: dose: 100.0 mg/kg/injection, schedule: Q01DX009 (ip), vehicle: saline.
Where [5] appears, read: dose: 200.0 mg/kg/injection, schedule: Q01DX009 (ip), vehicle: saline.
[6] abbreviates: dose: 12.5 mg/kg/injection, schedule: Q01DX009 (ip), vehicle: saline.
Setting [7] is: dose: 400.0 mg/kg/injection, schedule: Q01DX009 (ip), vehicle: saline.
Where [8] appears, read: dose: 2.0 mg/kg/injection, schedule: Q01DX009 (ip), vehicle: Klucel (hydroxypropylcellulose) (HPC).
Setting [9] is: dose: 100.0 mg/kg/injection, schedule: Q04DX003 (ip), vehicle: saline.
Where [10] appears, read: dose: 6.25 mg/kg/injection, schedule: Q01DX009 (ip), vehicle: Klucel (hydroxypropylcellulose) (HPC).
Setting [11] is: dose: 12.5 mg/kg/injection, schedule: Q01DX009 (ip), vehicle: Klucel (hydroxypropylcellulose) (HPC).
[12] abbreviates: dose: 25.0 mg/kg/injection, schedule: Q01DX009 (ip), vehicle: Klucel (hydroxypropylcellulose) (HPC).

The list is a part of this screen's results and no random one: its compounds were picked by chemical class. Not every dose and run of a compound is shown. T/C is the treated group as % of the vehicle group. Some entries give survivors of the animals treated and no T/C: the source files T/C as zero there, which appears to mark a toxic dose or a test without result, not a measured value. Some survivor counts are full or nearly so, which does not show that the dose was tolerated: survival well below the control is almost never listed, so the zero probably covers shortened survival too. Counts of survivors are from the toxicity check (mostly the fifth day) where no day follows; animals may have died later. Schedules are NCI's codes, taken here to give the interval after Q, in days (D) or hours (H), and the number of doses after X. For survival time, the PubChem record calls one and a half times the control and up active, and a quarter to a half above the control has no call in these data; cut-offs in other NCI protocols can differ. Some entries were tested several times; the results are listed from low to high. Some T/C values carry the count of animals alive at the toxicity check (mostly the fifth day); without a count or a note in brackets, all were alive then.

On to `OC(CNCCCl)C(O)C(O)C(O)CNCCCl` (centres undefined), for which the T/C was 117 % of control (dose: 2.5 mg/kg/injection, schedule: Q01DX009 (ip), vehicle: saline, evaluated on day 45); 100 % of control (dose: 2.5 mg/kg/injection, schedule: Q01DX009 (ip), vehicle: saline, evaluated on day 60); 117 % of control (dose: 5.0 mg/kg/injection, schedule: Q01DX009 (ip), vehicle: saline, evaluated on day 45); 113 % of control (dose: 5.0 mg/kg/injection, schedule: Q01DX009 (ip), vehicle: saline, evaluated on day 60); 125 % of control (dose: 10.0 mg/kg/injection, schedule: Q01DX009 (ip), vehicle: saline, evaluated on day 45); 150 % of control (dose: 10.0 mg/kg/injection, schedule: Q01DX009 (ip), vehicle: saline, evaluated on day 60). The T/C under setting [1] was 137 % of control. Moreover, the survivor count under setting [1] is reported as 6 of 6 and the survivor count (dose: 40.0 mg/kg/injection, schedule: Q01DX009 (ip), vehicle: saline) was 6 of 6.

`C1COP(OCCOP2OCCO2)O1`: the T/C is 116 % of control under setting [2], 110 % of control under setting [3], 120 % of control under setting [4] and 90 % of control under setting [5].

In the case of `CC(Cl)CN(CC(C)Cl)C(=O)OCC(N)C(=O)O` (centres undefined), the T/C by setting is: under setting [6], 104 and 121 % of control; under setting [2], 116 and 123 % of control; under setting [3], 104 and 121 % of control; under setting [4], 104 and 108 % of control; under setting [5], 104 and 106 % of control; under setting [7], 106 % of control.

Regarding `Cc1[nH]c(=O)[nH]c(=O)c1N(CCCl)CCCl`, the T/C is, setting by setting: (dose: 0.5 mg/kg/injection, schedule: Q01DX009 (ip), vehicle: Klucel (hydroxypropylcellulose) (HPC)) 155 % of control; (dose: 1.0 mg/kg/injection, schedule: Q01DX009 (ip), vehicle: Klucel (hydroxypropylcellulose) (HPC)) 107 % of control. Moreover, the survivor count reads like this: under setting [8], 10 of 10; (dose: 4.0 mg/kg/injection, schedule: Q01DX009 (ip), vehicle: Klucel (hydroxypropylcellulose) (HPC)) 6 of 10.

Take `CCN(CCCl)CC1OC(OC)C2OC(C)(C)OC12` (centres undefined): the T/C by setting is: (dose: 4.3 mg/kg/injection, schedule: Q01DX006 (ip), vehicle: saline) 130 % of control; (dose: 4.3 mg/kg/injection, schedule: Q01DX009 (ip), vehicle: saline) 129 % of control; (dose: 7.2 mg/kg/injection, schedule: Q01DX006 (ip), vehicle: saline) 148 % of control; (dose: 7.2 mg/kg/injection, schedule: Q01DX009 (ip), vehicle: saline) 145 % of control; (dose: 12.0 mg/kg/injection, schedule: Q01DX006 (ip), vehicle: saline) 150 % of control; (dose: 12.0 mg/kg/injection, schedule: Q01DX009 (ip), vehicle: saline) 122 % of control. Further, the T/C (dose: 20.0 mg/kg/injection, schedule: Q01DX006 (ip), vehicle: saline) was 153 % of control. For the same compound, the survivor count under setting [1] was 10 of 10.

With `N#C/C(=C\c1ccc(N(CCBr)CCBr)cc1)C(N)=O`, the T/C was 127 % of control (dose: 0.5 mg/kg/injection, schedule: Q01DX009 (ip), vehicle: saline with Tween-80); 144 % of control (dose: 1.0 mg/kg/injection, schedule: Q01DX009 (ip), vehicle: saline sonified); 135 % of control (dose: 1.0 mg/kg/injection, schedule: Q01DX009 (ip), vehicle: saline with Tween-80); 133 % of control under setting [8]; 142 % of control (dose: 2.0 mg/kg/injection, schedule: Q01DX009 (ip), vehicle: saline sonified); 150 % of control (dose: 2.0 mg/kg/injection, schedule: Q01DX009 (ip), vehicle: saline with Tween-80). Besides, the T/C is 184 % of control (dose: 3.0 mg/kg/injection, schedule: Q01DX009 (ip), vehicle: Klucel (hydroxypropylcellulose) (HPC)); 163 % of control (dose: 4.0 mg/kg/injection, schedule: Q01DX009 (ip), vehicle: saline sonified); 141 % of control [9 of 10 alive] (dose: 4.0 mg/kg/injection, schedule: Q01DX009 (ip), vehicle: saline with Tween-80); 187 % of control (dose: 4.5 mg/kg/injection, schedule: Q01DX009 (ip), vehicle: Klucel (hydroxypropylcellulose) (HPC)); 94 % of control (dose: 8.0 mg/kg/injection, schedule: Q01DX009 (ip), vehicle: saline sonified). Further, the survivor count is reported as 9 of 10 (dose: 8.0 mg/kg/injection, schedule: Q01DX009 (ip), vehicle: saline with Tween-80) and 10 of 10 (dose: 12.0 mg/kg/injection, schedule: Q01DX009 (ip), vehicle: saline with Tween-80).

Regarding `C[N+](C)(C)Cc1ccccc1.F[P-](F)(F)(F)(F)F`, the T/C is 110 % of control (dose: 5.0 mg/kg/injection, schedule: Q01DX009 (ip), vehicle: saline with Tween-80); 100 % of control (dose: 10.0 mg/kg/injection, schedule: Q01DX009 (ip), vehicle: saline with Tween-80); 92 % of control (dose: 20.0 mg/kg/injection, schedule: Q01DX009 (ip), vehicle: saline with Tween-80).

With `CCCCO[P+](=O)OCCCC`, the T/C under setting [6] was 105 % of control; the T/C under setting [2] was 105 % of control; the T/C (dose: 25.0 mg/kg/injection, schedule: Q04DX003 (ip), vehicle: saline) was 98 % of control; the T/C under setting [3] is 104 % of control; the T/C (dose: 50.0 mg/kg/injection, schedule: Q04DX003 (ip), vehicle: saline) is 98 % of control; the T/C under setting [9] was 97 % of control.

In the case of `CC(O)CN(CCO)CC(C)O` (centres undefined), the T/C by setting is: (dose: 66.0 mg/kg/injection, schedule: Q04DX003 (ip), vehicle: saline) 99 % of control; under setting [9], 99 % of control; (dose: 150.0 mg/kg/injection, schedule: Q04DX003 (ip), vehicle: saline) 102 % of control.

On to `NC(=O)c1cn[nH]c1/N=N/N(CCCl)CCCl`, for which the T/C under setting [3] is 110 % of control and the T/C under setting [4] was 121 % of control. Besides, the survivor count is reported as 4 of 6 under setting [5] and 0 of 6 under setting [7].

In the case of `NC(Cc1ccc(N(CCF)CCCl)cc1)C(=O)O` (centres undefined), the T/C reads like this: under setting [10], 122 % of control; (dose: 8.0 mg/kg/injection, schedule: Q01DX009 (ip), vehicle: Klucel (hydroxypropylcellulose) (HPC)) 127 % of control; (dose: 12.0 mg/kg/injection, schedule: Q01DX009 (ip), vehicle: Klucel (hydroxypropylcellulose) (HPC)) 138 % of control; under setting [11], 162 % of control; (dose: 17.0 mg/kg/injection, schedule: Q01DX009 (ip), vehicle: Klucel (hydroxypropylcellulose) (HPC)) 157 % of control; (dose: 18.0 mg/kg/injection, schedule: Q01DX009 (ip), vehicle: Klucel (hydroxypropylcellulose) (HPC)) 147 % of control. For the same compound, the T/C is, setting by setting: under setting [12], 165 and 173 % of control; (dose: 37.0 mg/kg/injection, schedule: Q01DX009 (ip), vehicle: Klucel (hydroxypropylcellulose) (HPC)) 121 % of control.

Regarding `COc1ccc(N(CCCl)CCCl)cc1OC`, the T/C runs as follows: (dose: 3.12 mg/kg/injection, schedule: Q01DX009 (ip), vehicle: Klucel (hydroxypropylcellulose) (HPC)) 110 % of control; under setting [10], 118 % of control; under setting [11], 136 % of control; under setting [12], 162 % of control. Also, the survivor count is, setting by setting: (dose: 50.0 mg/kg/injection, schedule: Q01DX009 (ip), vehicle: Klucel (hydroxypropylcellulose) (HPC)) 10 of 10; (dose: 100.0 mg/kg/injection, schedule: Q01DX009 (ip), vehicle: Klucel (hydroxypropylcellulose) (HPC)) 10 of 10.
